# Reference: patent US5625032A (Amylin Pharmaceuticals, Inc., priority 1993, dated 1997)
# Some peptides are written in HELM: one residue between dots, names in brackets for other building blocks, links after the first $.
# Experiment: general procedure: Fmoc solid-phase peptide synthesis; 4-(2',4'-dimethoxyphenyl)-Fmoc aminomethyl phenoxy resin (Novabiochem); HBTU (Fast Moc)
# Conditions: whole synthesis, analytical RP-HPLC
substance,measurement,value
PEPTIDE1{[ac].A.T.Q.R.L.A.N.E.L.V.R.L.Q.T.Y.P.R.T.N.V.G.S.N.T.Y.[am]}$$$$V2.0,final HPLC purity,99%
